Laboratory results: article PMC5996148
The other results are listed elsewhere or left out.

Experiments:
Experiment in all cases: protein microarray (ProtoArray v5.0), streptavidin-Alexa Fluor 647
Details in all cases: 3'-biotin; 20 mM Tris (pH 7.5), 5 mM MgCl2, 100 mM KCl, 0.1% Tween-20, A/T-rich and random oligonucleotide blockers; temperature not stated; high values mean tight binding
[1] = test system: Baculoviral IAP repeat-containing protein 7 (human)
[2] = test system: Band 4.1-like protein 4A (human)
[3] = test system: Bardet-Biedl syndrome 10 protein (human)
[4] = test system: Bcl-2-related proline-rich protein (human)
[5] = test system: Beta-2-microglobulin (human)
[6] = test system: Beta-Ala-His dipeptidase (human)
[7] = test system: Beta-crystallin B3 (human)
[8] = test system: Bifunctional heparan sulfate N-deacetylase/N-sulfotransferase 1 (human)
[9] = test system: Bifunctional protein NCOAT (human)
[10] = test system: Biogenesis of lysosome-related organelles complex 1 subunit 1 (human)
[11] = test system: Brain and acute leukemia cytoplasmic protein (human)
[12] = test system: Branched-chain-amino-acid aminotransferase, mitochondrial (human)
[13] = test system: Breast carcinoma-amplified sequence 4 (human)
[14] = test system: Butyrophilin subfamily 1 member A1 (human)
[15] = test system: Butyrophilin subfamily 2 member A2 (human)
Bystin (human) = test system: Bystin (human)
[16] = test system: C-C motif chemokine 20 (human)
[17] = test system: C-C motif chemokine 22 (human)
[18] = test system: C-C motif chemokine 4 (human)
[19] = test system: C-Maf-inducing protein (human)

For “GGGAGGCTGAGGCAGG [G4-1 biotinylated (PQS2)]”, the binding signal [1] was -0.355 z-score, the binding signal [2] was 3.59 z-score and the binding signal [3] was -0.327 z-score. It also gave a binding signal [4] of -0.355 z-score, a binding signal [5] of -0.342 z-score and a binding signal [6] of -0.332 z-score. For the same sequence, the binding signal [7] was -0.333 z-score, the binding signal [8] was -0.331 z-score and the binding signal [9] was -0.357 z-score. The binding signal [10] was -0.348 z-score, the binding signal [11] was -0.298 z-score and the binding signal [12] was -0.364 z-score. The binding signal [13] was -0.353 z-score, the binding signal [14] was -0.315 z-score and the binding signal [15] was -0.333 z-score. It also gave a binding signal (Bystin (human)) of -0.306 z-score, a binding signal [16] of -0.35 z-score and a binding signal [17] of -0.337 z-score. It also gave a binding signal [18] of -0.341 z-score and a binding signal [19] of -0.351 z-score.
